Results taken from article PMC4931556.
These are yes or no findings as the source states them, for the method shown. In cells and extracts the contact can be indirect. Some entries that bind do so weakly or less than the wild type. Sequences can lack the tags named with a protein.

Amino acid sequences for entries named in this document (tags omitted).
UniProt O00429: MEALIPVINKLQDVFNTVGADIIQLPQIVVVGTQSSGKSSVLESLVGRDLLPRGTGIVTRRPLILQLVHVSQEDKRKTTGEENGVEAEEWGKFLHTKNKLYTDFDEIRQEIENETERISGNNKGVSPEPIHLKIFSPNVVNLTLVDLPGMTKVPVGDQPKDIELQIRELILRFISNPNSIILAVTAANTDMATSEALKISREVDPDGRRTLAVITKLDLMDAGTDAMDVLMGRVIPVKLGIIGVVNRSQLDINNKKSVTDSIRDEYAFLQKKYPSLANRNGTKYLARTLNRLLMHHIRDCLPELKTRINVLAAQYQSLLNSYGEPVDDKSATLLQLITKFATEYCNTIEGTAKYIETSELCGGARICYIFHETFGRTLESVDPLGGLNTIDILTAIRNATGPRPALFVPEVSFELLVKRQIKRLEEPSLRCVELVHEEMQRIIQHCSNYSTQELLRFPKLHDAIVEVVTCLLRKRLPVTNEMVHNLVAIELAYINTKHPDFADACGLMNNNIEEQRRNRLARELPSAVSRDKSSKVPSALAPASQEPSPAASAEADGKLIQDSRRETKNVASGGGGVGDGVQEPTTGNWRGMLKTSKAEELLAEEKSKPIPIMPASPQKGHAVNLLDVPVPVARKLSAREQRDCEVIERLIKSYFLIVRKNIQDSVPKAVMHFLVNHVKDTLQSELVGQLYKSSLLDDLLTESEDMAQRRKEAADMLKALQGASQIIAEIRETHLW

Key:
GFP-SEPT6 (human) [1] = target: T1, GFP-SEPT6 (human) (UniProt Q14141); experiment: co-IP; GFP-Trap beads on lysates of uninfected HeLa cells stably expressing GFP-SEPT6 (GFP cells as control); 1 h at 4°C, washed 3x; immunoblot
T1 sequence: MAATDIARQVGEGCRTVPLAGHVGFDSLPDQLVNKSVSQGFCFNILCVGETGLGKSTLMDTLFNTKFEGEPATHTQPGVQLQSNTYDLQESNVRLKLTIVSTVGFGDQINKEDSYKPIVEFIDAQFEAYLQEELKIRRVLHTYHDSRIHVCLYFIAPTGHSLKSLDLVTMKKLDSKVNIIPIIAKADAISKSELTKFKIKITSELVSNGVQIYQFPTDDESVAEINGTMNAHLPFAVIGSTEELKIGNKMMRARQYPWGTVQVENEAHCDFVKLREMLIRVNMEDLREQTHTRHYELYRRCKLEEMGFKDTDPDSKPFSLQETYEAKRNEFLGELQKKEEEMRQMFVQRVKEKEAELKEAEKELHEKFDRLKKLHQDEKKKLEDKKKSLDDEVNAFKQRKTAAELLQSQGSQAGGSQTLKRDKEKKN

GFP-SEPT6 (human) [2] = target: T1, GFP-SEPT6 (human); experiment: co-IP; GFP-Trap agarose on lysates of HeLa cells stably expressing SEPT6-GFP, infected with S. flexneri AfaI (MOI 10) for 4 h; lysis buffer 10 mM Tris/Cl pH 7.5, 150 mM NaCl, 0.5 mM EDTA, 0.5% NP-40; 1 h at room temperature; immunoblot

| Substance | binding (GFP-SEPT6 (human) [1]) | binding (GFP-SEPT6 (human) [2]) |
| --- | --- | --- |
| dynamin-related protein 1 (Drp1) (from UniProt O00429 1-736) | binds | – |
| p62 (from UniProt Q13501 1-440) | – | binds |
